# From PubChem BioAssay (EPA / NIEHS)
# Protein sequences, listed by entry. Tags and fused reporters are not part of them. Lines headed by an entry give the natural chain unless they say otherwise; changes in a name come on top.
# UniProt P10275: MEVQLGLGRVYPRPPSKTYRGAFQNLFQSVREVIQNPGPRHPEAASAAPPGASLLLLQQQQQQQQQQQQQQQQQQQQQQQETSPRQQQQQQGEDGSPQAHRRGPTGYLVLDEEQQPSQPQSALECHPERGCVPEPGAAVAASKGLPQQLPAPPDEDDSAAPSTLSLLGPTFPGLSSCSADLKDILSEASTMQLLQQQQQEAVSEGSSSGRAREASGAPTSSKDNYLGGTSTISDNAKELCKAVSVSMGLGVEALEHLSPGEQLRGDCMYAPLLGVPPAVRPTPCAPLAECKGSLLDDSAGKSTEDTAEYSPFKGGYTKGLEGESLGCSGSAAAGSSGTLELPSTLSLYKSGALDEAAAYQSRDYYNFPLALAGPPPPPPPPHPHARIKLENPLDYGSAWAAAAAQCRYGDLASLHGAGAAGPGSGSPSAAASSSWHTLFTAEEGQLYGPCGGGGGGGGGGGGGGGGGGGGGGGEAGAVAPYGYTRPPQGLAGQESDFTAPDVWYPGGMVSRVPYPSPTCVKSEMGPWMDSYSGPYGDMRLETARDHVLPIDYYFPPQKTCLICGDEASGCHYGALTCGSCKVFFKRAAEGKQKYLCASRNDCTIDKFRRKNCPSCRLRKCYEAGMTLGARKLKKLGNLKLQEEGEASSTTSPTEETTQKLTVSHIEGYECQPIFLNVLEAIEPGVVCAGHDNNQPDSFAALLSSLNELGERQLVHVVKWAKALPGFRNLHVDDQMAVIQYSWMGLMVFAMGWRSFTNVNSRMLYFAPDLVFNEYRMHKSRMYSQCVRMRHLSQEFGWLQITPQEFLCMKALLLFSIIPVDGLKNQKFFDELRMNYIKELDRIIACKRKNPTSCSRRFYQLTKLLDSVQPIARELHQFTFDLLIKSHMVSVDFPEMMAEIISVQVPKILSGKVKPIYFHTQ
# This list was built around the results that the source calls inconclusive (neither active nor inactive); the mix of calls is not that of the screen. Potencies beside an inconclusive call are fits to weak or partial responses and may not hold up. The source made the active and inactive calls. The calls were made as follows: active = hit-call score of the fitted dose curve at least 0.9, where 1 is the maximum; inconclusive = response in the unintended direction; inactive = score below 0.9.
# Target: Nucleoli Translocation, AR (gene 367) (UniProt P10275)
# Experiment: UPITT_HCI_U2OS_AR_TIF2_Nucleoli_Agonist: University of Pittsburgh U2OS Androgen Receptor-Transcriptional Intermediary Factor 2 (AR-TIF2) Agonism High Content Imaging Assay for Nucleoli Translocation (AID 2283998)
# Procedure, shortened: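 Nucleolar translocation of AR-RFP, with TIF2-GFP coexpressed in human osteosarcoma U2OS, imaged by high-content fluorescence. Compounds tested singly at 20 uM final, confirmed in triplicate, then titrated 0.195–50 uM final; gain-of-signal relative to DMSO.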
Compound,AC50,outcome
c1ccc2c(c1)CCCC2,inconclusive: 50 µM,
O=[N+]([O-])c1ccc(O)c([N+](=O)[O-])c1,inconclusive: 50 µM,
CCCCCCCc1ccc(O)cc1,active: 19.2 µM,
c1cc[c]([Hg][c]2ccccc2)cc1,,inactive
CC12CC1(C)C(=O)N(c1cc(Cl)cc(Cl)c1)C2=O (configuration not stated),,inactive
Nc1c(Cl)cc([N+](=O)[O-])cc1Cl,,inactive
O=C1CCCO1,inconclusive: 50 µM,
CCC1(c2ccc(N)cc2)CCC(=O)NC1=O (configuration not stated),inconclusive: 50 µM,
CCNS(=O)(=O)C(F)(F)C(F)(F)C(F)(F)C(F)(F)C(F)(F)C(F)(F)C(F)(F)C(F)(F)F,inconclusive: 48.2 µM,
c1cc2c3c(cccc3c1)CC2,inconclusive: 50 µM,
CCCCCCCCOC(=O)c1ccccc1C(=O)OCCCCCCCC,inconclusive: 50 µM,
O=c1[nH]c(=O)[nH]c(=O)[nH]1,,inactive
CC1(C)CCC(=Cc2ccc(Cl)cc2)C1(O)Cn1cncn1 (configuration not stated),active: 9.87 µM,
CNC(=O)Oc1cccc2c1OC(C)(C)C2,inconclusive: 50 µM,
CO/C=C(/C(=O)OC)c1ccccc1Oc1cc(Oc2ccccc2C#N)ncn1,inconclusive: 50 µM,
O=S1OCC2C(CO1)C1(Cl)C(Cl)=C(Cl)C2(Cl)C1(Cl)Cl (configuration not stated),,inactive
C[C@]12C=CC3=C4CCC(=O)C=C4CC[C@H]3[C@@H]1CC[C@@H]2O,active: 0.00188 µM,
N#CCC#N,inconclusive: 2.33 µM,
N#CC(CCc1ccc(Cl)cc1)(Cn1cncn1)c1ccccc1 (configuration not stated),,inactive
CC(C)Oc1cc(-n2nc(C(C)(C)C)oc2=O)c(Cl)cc1Cl,,inactive

Compound,AC50,outcome
C[C@H]1CCCC(=O)CCC/C=C/c2cc(O)cc(O)c2C(=O)O1,active: 80.6 µM,
ClC1(Cl)C2(Cl)C3(Cl)C4(Cl)C(Cl)(Cl)C5(Cl)C3(Cl)C1(Cl)C5(Cl)C24Cl (configuration not stated),inconclusive: 50 µM,
CC(C)(C)N(NC(=O)c1ccc(Cl)cc1)C(=O)c1ccccc1,,inactive
O=S1OC[C@@H]2[C@H](CO1)[C@]1(Cl)C(Cl)=C(Cl)[C@@]2(Cl)C1(Cl)Cl (some centres not stated),inconclusive: 50 µM,
O=C1C2(Cl)C3(Cl)C4(Cl)C(Cl)(Cl)C5(Cl)C3(Cl)C1(Cl)C5(Cl)C24Cl (configuration not stated),active: 12.7 µM,
CCCN(CCC)c1c([N+](=O)[O-])cc(C(F)(F)F)cc1[N+](=O)[O-],inconclusive: 50 µM,
Oc1ccc(Cl)cc1Cc1ccccc1,active: 13 µM,
O=S1(=O)OC(c2cc(Br)c(O)c(Br)c2)(c2cc(Br)c(O)c(Br)c2)c2ccccc21,inconclusive: 46.5 µM,
CCON=C(CC)C1=C(O)CC(c2c(C)cc(C)cc2C)CC1=O (configuration not stated),inconclusive: 50 µM,
CCc1cccc(CC)c1N(COC)C(=O)CCl,,inactive
O=[N+]([O-])c1c(Cl)c(Cl)c(Cl)c(Cl)c1Cl,,inactive
C=CC(=O)NCNC(=O)C=C,,inactive
O=[N+]([O-])c1ccc(Cl)c([N+](=O)[O-])c1,active: 3.34 µM,
COP(=O)(OC)OC(Br)C(Cl)(Cl)Br (configuration not stated),active: 79 µM,
CCOP(=O)(OCC)Oc1nc(Cl)c(Cl)cc1Cl,inconclusive: 49.8 µM,
C[C@H]1O[C@@H](O[C@H]2[C@@H](O)C[C@H](O[C@H]3[C@@H](O)C[C@H](O[C@H]4CC[C@@]5(C)[C@H](CC[C@@H]6[C@@H]5CC[C@]5(C)[C@@H](C7=CC(=O)OC7)CC[C@]65O)C4)O[C@@H]3C)O[C@@H]2C)C[C@H](O)[C@@H]1O,inconclusive: 34.2 µM,
N#Cc1cc(Br)c(O)c(Br)c1,inconclusive: 0.00778 µM,
Cc1cc(Cl)ccc1OCC(=O)O,inconclusive: 50 µM,
CC(C)CCCCCCOC(=O)c1ccccc1C(=O)OCCCCCCC(C)C,inconclusive: 50 µM,

# Target: Ratio of Nucleoli Translocation and Cytoplasm, AR (gene 367) (UniProt P10275)
# Experiment: UPITT_HCI_U2OS_AR_TIF2_Nucleoli_Cytoplasm_Ratio_Antagonist: University of Pittsburgh U2OS Androgen Receptor-Transcriptional Intermediary Factor 2 (AR-TIF2) Antagonism High Content Imaging Assay for Ratio of Nucleoli Translocation and Cytoplasm (AID 2283999);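 also: antagonists lower the DHT-driven ratio of nucleolar to cytoplasmic red signal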
# Procedure, shortened: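 High-content imaging of red fluorescence ratio, nucleoli versus cytoplasm, in U2OS expressing AR-RFP and TIF2-GFP, fitted relative to DHT. Compounds tested once at 20 uM final, then 0.195 to 50 uM final in serial dilution.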
Compound,AC50,outcome
c1ccc2c(c1)CCCC2,inconclusive: 12.1 µM,
CCCCCCCc1ccc(O)cc1,active: 79.6 µM,
c1cc[c]([Hg][c]2ccccc2)cc1,active: 85.1 µM,
Nc1c(Cl)cc([N+](=O)[O-])cc1Cl,,inactive
O=C1CCCO1,inconclusive: 50 µM,
CCNS(=O)(=O)C(F)(F)C(F)(F)C(F)(F)C(F)(F)C(F)(F)C(F)(F)C(F)(F)C(F)(F)F,inconclusive: 48.2 µM,
c1cc2c3c(cccc3c1)CC2,,inactive
CCCCCCCCOC(=O)c1ccccc1C(=O)OCCCCCCCC,,inactive
CC1(C)CCC(=Cc2ccc(Cl)cc2)C1(O)Cn1cncn1 (configuration not stated),,inactive
O=S1OCC2C(CO1)C1(Cl)C(Cl)=C(Cl)C2(Cl)C1(Cl)Cl (configuration not stated),,inactive
C[C@]12C=CC3=C4CCC(=O)C=C4CC[C@H]3[C@@H]1CC[C@@H]2O,inconclusive: 0.00039 µM,
CC(C)Oc1cc(-n2nc(C(C)(C)C)oc2=O)c(Cl)cc1Cl,,inactive
ClC1(Cl)C2(Cl)C3(Cl)C4(Cl)C(Cl)(Cl)C5(Cl)C3(Cl)C1(Cl)C5(Cl)C24Cl (configuration not stated),inconclusive: 50 µM,
O=C1C2(Cl)C3(Cl)C4(Cl)C(Cl)(Cl)C5(Cl)C3(Cl)C1(Cl)C5(Cl)C24Cl (configuration not stated),active: 13.7 µM,
CCCN(CCC)c1c([N+](=O)[O-])cc(C(F)(F)F)cc1[N+](=O)[O-],,inactive
Oc1ccc(Cl)cc1Cc1ccccc1,active: 7.42 µM,
CCc1cccc(CC)c1N(COC)C(=O)CCl,active: 12.8 µM,
O=[N+]([O-])c1ccc(Cl)c([N+](=O)[O-])c1,active: 2.39 µM,
CCOP(=O)(OCC)Oc1nc(Cl)c(Cl)cc1Cl,inconclusive: 49.8 µM,
N#Cc1cc(Br)c(O)c(Br)c1,inconclusive: 1.78 µM,
Cc1cc(Cl)ccc1OCC(=O)O,inconclusive: 50 µM,inactive
CC(C)CCCCCCOC(=O)c1ccccc1C(=O)OCCCCCCC(C)C,inconclusive: 50 µM,
